From ChEMBL document CHEMBL3988442, “University of Dundee, Small-Polar-MMV Screening Library” (2021).

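Viability assay of Plasmodium falciparum sporozoites; the read-out is not stated. The concentration is filed as 10 mM, unlikely as a test dose, so the dose is not known. The record gives no direction; compounds that gave an IC50 in retests scored well above the rest, so higher reads as lower viability. Strong results were mostly tested again. Of about 34,000 compounds tested this way, about 280 (0.84%) reached 50% or more in at least one test.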

Each number is a percent effect as filed.
The record does not define 0% and 100%; most values in the screen are far below 50% and negative numbers occur (in some assays of this library far below -100).
This is an unselected part of the compounds tested.
Two or more numbers in one place are separate tests of the same structure; such repeats can differ widely.

compound,effect
N#Cc1ccc(C(=O)N2CCn3c(Cn4cccn4)cnc3C2)cc1.O=C(O)C(F)(F)F,-13.53
CC(c1nc(C2CC2)no1)N1CCN(Cc2nnc(C3CC3)o2)CC1 (stereo not given),7.09
Cc1ccccc1N1CC2(CCN(S(=O)(=O)c3ccccc3)C2)CC1=O (stereo not given),-6.918
Cc1ccc(-c2noc(CN3CC(n4cc(C)cn4)C3)n2)cc1,-5.791
Cc1ncc(CNC(=O)Cc2ccc(Cl)cc2)c(C2CCCN2C)n1 (stereo not given),-1.303
CCOCC(=O)N1CCC(C)(c2nccs2)CC1,-3.657
Cc1ccc2c(C)c(C(=O)NCc3csc(N)n3)oc2c1,-5.876
CC(C)COC1CCN(C(=O)c2cc3ccccc3c(=O)[nH]2)CC1,3.514
COCCN1CCN(S(C)(=O)=O)Cc2cccnc21,9.705
NC(=O)Cn1c(CO)cnc1SCc1ccccc1Cl,-53.21 & -67.18
Cc1ccc(CN2CCc3c(nc4cc(C5CC5)nn4c3O)C2)s1,2.131
CN1CCN(C2CCN(c3cnc4ccccc4n3)CC2)C1=O,71.66 & 96.44 & 85
Cn1ccnc1CN1C[C@@H](CN2CCCC2)[C@@H](CO)C1,-0.5325
Cc1ccc(CN2Cc3ccnn3CC(C(=O)NCC3CC3)C2)o1.O=C(O)C(F)(F)F.O=C(O)C(F)(F)F (stereo not given),0.8432
C=Cc1ccc(C(=O)N2CCCC(Nc3ccc(F)c(F)c3)C2)cc1 (stereo not given),-1.491
Cc1cc(C(=O)NCc2ccnc(N3CCN(C)CC3)c2)no1,0.653
CN1CCC(C(=O)N2CCN(Cc3cccc(Cl)c3)CC2)CC1=O (stereo not given),-17.37
CNC(=O)c1cc2c(nc1NCC(C)C)CCN(S(=O)(=O)C1CC1)CC2,2.076
CCc1nc(CN2CCCC(Nc3ncnc4ccsc34)C2)no1 (stereo not given),-7.898
CN(C)CCOc1ccc(CNC(=O)c2cccc(Cl)c2Cl)cc1,10.03
CCOC(=O)CCn1cnc2onc(-c3cc(OC)ccc3Cl)c2c1=O,-1.726
Cc1ccc(CN2CCC3(CC2)CCN(C(=O)c2cccn2C)C3)cc1.O=C(O)C(F)(F)F,-1.664
CC(C)(C)n1ncc2c1NC(=O)CC2c1ccsc1 (stereo not given),4.262
Cc1nn(CCC(=O)NC2CCCOC2)c(C)c1C (stereo not given),-84.31
CCc1ncc2c(n1)CN(CC(=O)Nc1cc(C)no1)CC2,5.587
Clc1ccc(CN2CCCC2Cn2cncn2)c2ncccc12 (stereo not given),0.6256
[H][C@@]12CCN(Cc3cccnc3)[C@@]1([H])CCN2C(=O)Cc1cccs1,3.765
COC(=O)COc1nc(CC(C)C)c2c(c1C#N)CCCC2,10.5
Cc1ccc(=O)n(CC2(O)CCN(Cc3cc(C)c(O)c(C)c3)CC2)n1.O=C(O)CC(O)(CC(=O)O)C(=O)O,-8.886
CS(=O)(=O)N1CCCC(n2nnn(-c3ccccc3)c2=O)C1 (stereo not given),11.78
COc1ccccc1CC1CCCN(CC(=O)N2CCOCC2)C1 (stereo not given),-6.936
COCC(=O)N1CCCC1c1nccnc1Nc1nc(C)cs1 (stereo not given),4.854
CC(C)(C)n1cc(C2=CCN(CCNC(=O)c3ccccc3)CC2)cn1,-11.67 & -1.893
Cc1cnn(CC2CCCN2C(=O)c2cccc3[nH]ncc23)c1 (stereo not given),4.021
Cc1nn(C)c2ncnc(NCc3nncn3C3CCCCC3)c12,3.72
Cc1noc2ncc(C(=O)N(CC3CCOC3)C3CC3)cc12 (stereo not given),-15.33
Cc1nc2ccccc2nc1CN1CCOC(Cn2cccn2)C1 (stereo not given),6.321
O=C(O)C(F)(F)F.[H][C@@]12COC[C@]1(CNS(=O)(=O)CC)CN(Cc1cccc(OC)c1)C2,-17.6
COCCNc1ccc(CC2CCCNC2)cn1.Cl (stereo not given),2.389
O=C(O)C(F)(F)F.O=C(O)C(F)(F)F.[H][C@@]12CCN(C3CCCC3)C[C@]1(C(=O)NCc1ccccn1)CCO2,1.864
CN(C)C(=O)CCS(=O)(=O)Cc1cc(Cl)c2c(c1)OCO2,-18.38 & 3.488 & -14.45
Cc1cc(CN2CCOC(CNc3cccnn3)C2)on1 (stereo not given),1.581
Cc1ccnc(C2(C)CCCN2C(=O)c2cnccn2)n1 (stereo not given),8.259
CCCOc1ccc(C(=O)Oc2cc(=O)n3cccc(C)c3n2)cc1,-6.63
Cc1occc1C(=O)N1Cc2nccn2CC(CN2CCCC2)C1.O=C(O)C(F)(F)F (stereo not given),6.684
Cn1nc(C2CN(S(C)(=O)=O)C2)c2nccnc21,3.464
Cc1cnn(CCNCc2nccn2Cc2ccccc2)c1,-6.548
O=C(O)C(F)(F)F.O=C(O)C(F)(F)F.c1cncc(C2COC3(CCN(CC4CCOCC4)CC3)C2)c1 (stereo not given),24.12
O=C(O)C(F)(F)F.O=C(O)C(F)(F)F.c1cnc(NCc2ncn3c2CN(Cc2cccnc2)CCC3)nc1,-7.892
CN1C(=O)CCC12CCN(c1ccc(C#N)cn1)CC2.O=C(O)C(F)(F)F,-3.713
O=C(c1cccnc1)N1CCc2[nH]nc(Nc3ccccc3)c2C1,14.44
Cl.Cl.[H][C@@]12OCCC[C@]1([H])NC[C@@H]2NC(=O)c1cccnc1,0.6548
Cc1cc(-c2cc3nc(C)c(C)c(NCC4COCCO4)n3n2)no1 (stereo not given),-5.069
CCc1nc(C2CCCN2Cc2cc(C)nc3ccccc23)no1 (stereo not given),16.92 & -2.34 & -190.4
COc1ncccc1CNC(=O)c1ccco1,15.58
Cc1nnc2n1CCN(Cc1ncc(-c3ccccc3)o1)C2,-0.4965
Cc1ccc(C(=O)Nc2ccc(N(C)C)nc2)n1C,-50.05 & -47.13
CC(C)C(=O)N1CCCC2(C1)CN(c1nncs1)CCO2.O=C(O)C(F)(F)F (stereo not given),-0.5254
O=S(=O)(CCN1CCN(c2ccccc2O)CC1)c1ccc(Br)cc1,10.7
Cc1cc(=O)n2nc(Oc3ccc(F)c(F)c3)sc2n1,-4.834
Cc1nc(C)n(C2CCCN(C(=O)c3sccc3C3CC3)C2)n1 (stereo not given),6.332
O=C(O)C(F)(F)F.O=C(O)C(F)(F)F.[H][C@@]12CN(Cc3csc(C)n3)C[C@]1([H])CN(C(=O)Cc1ccccn1)C2,-4.557
CN(C)Cc1csc(-c2nccn2Cc2ccsc2)c1,-7.054
[H][C@@]12CCN(C(=O)NC(C)C)CC[C@]1(C(=O)N(C)C)CCN2CC,-9.752
Cc1nn(C)c(C)c1C(C)NCc1ccsc1 (stereo not given),-4.912
CCn1c(CN(C)CC(F)(F)F)nc2c(F)cccc21,-12.57
CN(C)c1ncc(-c2cc(C(=O)N3CCCC3)n(CC3CC3)c2)cn1,-1.522
O=C1NCCN1C1CCN(CCOc2ccccc2Cl)CC1,-7.417
[H][C@@]12CC(COCc3ccncc3)C[C@@]1([H])N(C(=O)CN(C)C)CCO2 (stereo not given in full),5.907
CSCC(C)(O)CNc1ccccn1 (stereo not given),-8.102
[H][C@@]12CN(Cc3cccnc3)C[C@]1([H])C(=O)N(C)C21CCN(C(C)=O)CC1,9.923
CCC(=O)N1CCC2(C=C(C(=O)N(C)C)c3ccccc32)CC1,8.406
Cc1ccc(N2CC[C@@H](NC(=O)c3cnccn3)[C@H](O)C2)nn1,3.197
O=C(O)C(F)(F)F.O=C1CC2(CCN(Cc3ccco3)C2)CN1c1ccc2c(c1)OCO2 (stereo not given),-1.46
Cc1nccn1C1CCCN(C(=O)c2cc(Cl)c3c(c2)OCO3)C1 (stereo not given),-9.421
CCN1CCn2c(-c3cccc(F)c3)cnc2C12CCN(C(C)=O)CC2.O=C(O)C(F)(F)F,-3.853
CS(=O)(=O)NCCC(=O)NCc1cccnc1-n1cnc2ccccc21,-3.197
Cc1ccc(CNc2cc(N3CCCC3CO)ncn2)s1 (stereo not given),-8.103
CC(=O)N1CCC(C(=O)NCCN2CCC(C)CC2)CC1,-6.719
CN1CCOCC2(CCCN(C(=O)c3cnccn3)C2)C1.O=C(O)C(F)(F)F (stereo not given),-9.156
Cn1nc(C(=O)NC2CC(C)(C)NC(C)(C)C2)cc1NC(=O)C1CC1,-12.84
O=C(C1CC=CC1)N1CCc2c(COCc3ccncc3)cncc2C1.O=C(O)C(F)(F)F.O=C(O)C(F)(F)F,3.835
Cc1ccc(CC(=O)N2CCCC(c3nc(C)cs3)C2)cn1 (stereo not given),-4.261
O=C(NCCn1ccc(-c2ccncc2)n1)c1ccncc1,-14.29
O=C1CC2(CCN(C(=O)c3ccccn3)CC2)Oc2c(Cl)cc(Cl)cc21,-1.104
O=C(O)c1ccccc1-c1ccc(CN2CCOCC2)cn1,6.918
Cc1noc(C)c1CC(=O)N1CCCC(n2ccnc2C)C1 (stereo not given),-6.625
CCc1nc(C2CCCN2C(=O)c2cnc[nH]2)no1 (stereo not given),7.887
CCOc1ccc(NC(=O)C2OC(c3cccs3)=NN2C(C)=O)cc1 (stereo not given),-4.317
CCN1CCN(Cc2coc(-c3cccc(F)c3)n2)CC1,64.85 & 77.13 & 53.15
CC(C)N1CCOCC2(CCCN(C(=O)CCc3cccnc3)C2)C1.O=C(O)C(F)(F)F (stereo not given),-4.579
O=C(O)C(F)(F)F.O=C(O)C(F)(F)F.[H][C@@]12COC[C@H](C(=O)Nc3cccnc3)[C@]1([H])CN(C1CCCC1)C2,-23.45
COc1ccc2c(c1)CC(NCCCn1cc(C)cn1)CC2 (stereo not given),4.329
Cc1cnn(CC2CCCN2C(=O)c2cnc3n[nH]c(C)c3c2)c1 (stereo not given),4.057
CCOCC(=O)N1CCC(Oc2ccc(Cl)cn2)CC1,-7.709

Repeated from the top, 11 entries:

* N#Cc1ccc(C(=O)N2CCn3c(Cn4cccn4)cnc3C2)cc1.O=C(O)C(F)(F)F : -13.53%
* CC(c1nc(C2CC2)no1)N1CCN(Cc2nnc(C3CC3)o2)CC1 (stereo not given) : 7.09%
* Cc1ccccc1N1CC2(CCN(S(=O)(=O)c3ccccc3)C2)CC1=O (stereo not given) : -6.918%
* Cc1ccc(-c2noc(CN3CC(n4cc(C)cn4)C3)n2)cc1 : -5.791%
* Cc1ncc(CNC(=O)Cc2ccc(Cl)cc2)c(C2CCCN2C)n1 (stereo not given) : -1.303%
* CCOCC(=O)N1CCC(C)(c2nccs2)CC1 : -3.657%
* Cc1ccc2c(C)c(C(=O)NCc3csc(N)n3)oc2c1 : -5.876%
* CC(C)COC1CCN(C(=O)c2cc3ccccc3c(=O)[nH]2)CC1 : 3.514%
* COCCN1CCN(S(C)(=O)=O)Cc2cccnc21 : 9.705%
* NC(=O)Cn1c(CO)cnc1SCc1ccccc1Cl : -53.21% & -67.18%
* Cc1ccc(CN2CCc3c(nc4cc(C5CC5)nn4c3O)C2)s1 : 2.131%